No constants are given. Whether binding was seen depends on the method and setting. Binding seen in cells or lysates may run through a third protein. Some binding calls cover weakened binding; strength is not graded here. Each block holds one binder with its values, some of them ahead of it.
Legend:
Experiment in all cases: cross-linking; intact purified yeast mitochondria (5 mg/ml, isotonic buffer: 250 mM sucrose, 1 mM EDTA, 10 mM MOPS-KOH, pH 7.2) crosslinked in organello with 2 mM CBDPS-H8/D8, 21 °C 10 min then on ice 110 min; Lys-Lys inter-protein crosslinked peptides enriched (SCX, avidin) and identified by LC-MS/MS, FDR 2%
[1] = molecular target: T1, ATP17 (yeast (endogenous in mitochondria of strain YPH499)) (UniProt Q06405)
T1 sequence: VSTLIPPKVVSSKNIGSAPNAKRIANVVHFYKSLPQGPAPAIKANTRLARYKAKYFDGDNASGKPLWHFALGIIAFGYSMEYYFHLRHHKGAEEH

Protein sequences, listed by entry. Tags and fused reporters are not part of them.
UniProt P18239: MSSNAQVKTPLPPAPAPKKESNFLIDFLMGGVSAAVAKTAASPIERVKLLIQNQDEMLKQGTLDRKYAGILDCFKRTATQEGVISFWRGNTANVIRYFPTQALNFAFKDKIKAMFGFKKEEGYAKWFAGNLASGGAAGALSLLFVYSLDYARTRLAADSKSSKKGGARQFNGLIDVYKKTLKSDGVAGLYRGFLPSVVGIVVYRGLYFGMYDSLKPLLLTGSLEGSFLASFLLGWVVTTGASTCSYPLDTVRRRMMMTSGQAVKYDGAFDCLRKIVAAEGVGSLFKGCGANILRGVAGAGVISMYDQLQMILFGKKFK

[2] = molecular target: T2, KGD1 (yeast (endogenous in mitochondria of strain YPH499)) (UniProt P20967)
T2 sequence: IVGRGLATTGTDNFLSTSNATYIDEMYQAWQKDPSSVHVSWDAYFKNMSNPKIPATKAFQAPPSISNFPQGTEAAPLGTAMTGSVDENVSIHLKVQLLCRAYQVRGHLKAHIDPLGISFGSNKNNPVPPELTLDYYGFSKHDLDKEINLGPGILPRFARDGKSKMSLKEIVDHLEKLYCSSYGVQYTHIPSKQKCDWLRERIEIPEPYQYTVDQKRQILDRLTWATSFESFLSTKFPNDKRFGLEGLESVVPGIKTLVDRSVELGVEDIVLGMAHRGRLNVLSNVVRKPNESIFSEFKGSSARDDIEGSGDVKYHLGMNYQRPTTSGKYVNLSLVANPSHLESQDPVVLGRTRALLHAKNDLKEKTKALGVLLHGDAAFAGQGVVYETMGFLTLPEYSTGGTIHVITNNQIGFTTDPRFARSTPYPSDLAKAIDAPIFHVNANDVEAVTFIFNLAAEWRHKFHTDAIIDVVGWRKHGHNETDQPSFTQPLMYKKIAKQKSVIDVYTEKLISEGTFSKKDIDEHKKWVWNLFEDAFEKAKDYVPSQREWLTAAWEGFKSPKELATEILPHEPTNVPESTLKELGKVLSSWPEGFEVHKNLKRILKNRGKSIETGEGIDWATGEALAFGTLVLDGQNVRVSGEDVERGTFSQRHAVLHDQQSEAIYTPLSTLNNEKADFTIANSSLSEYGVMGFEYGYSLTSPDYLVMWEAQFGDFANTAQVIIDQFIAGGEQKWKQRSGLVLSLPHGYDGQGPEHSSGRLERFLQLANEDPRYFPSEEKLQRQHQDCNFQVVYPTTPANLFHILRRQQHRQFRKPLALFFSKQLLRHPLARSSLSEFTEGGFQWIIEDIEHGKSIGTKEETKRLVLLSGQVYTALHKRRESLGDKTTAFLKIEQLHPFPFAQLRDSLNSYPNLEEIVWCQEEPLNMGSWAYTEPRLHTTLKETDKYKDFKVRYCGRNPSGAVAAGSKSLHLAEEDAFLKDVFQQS

[3] = molecular target: T3, ATP20 (yeast (endogenous in mitochondria of strain YPH499)) (UniProt Q12233)
T3 sequence: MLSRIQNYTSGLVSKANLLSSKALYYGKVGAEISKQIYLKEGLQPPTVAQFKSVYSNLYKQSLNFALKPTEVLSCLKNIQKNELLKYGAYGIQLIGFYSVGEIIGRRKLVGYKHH

[4] = molecular target: T4, ATP7 (yeast (endogenous in mitochondria of strain YPH499)) (UniProt P30902)
T4 sequence: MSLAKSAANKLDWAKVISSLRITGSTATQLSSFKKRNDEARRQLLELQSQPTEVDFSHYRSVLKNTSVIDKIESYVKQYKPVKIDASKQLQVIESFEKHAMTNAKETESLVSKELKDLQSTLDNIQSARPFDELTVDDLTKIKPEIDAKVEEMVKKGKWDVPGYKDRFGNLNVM

[5] = molecular target: T5, ATP5 (yeast (endogenous in mitochondria of strain YPH499)) (UniProt P09457)
T5 sequence: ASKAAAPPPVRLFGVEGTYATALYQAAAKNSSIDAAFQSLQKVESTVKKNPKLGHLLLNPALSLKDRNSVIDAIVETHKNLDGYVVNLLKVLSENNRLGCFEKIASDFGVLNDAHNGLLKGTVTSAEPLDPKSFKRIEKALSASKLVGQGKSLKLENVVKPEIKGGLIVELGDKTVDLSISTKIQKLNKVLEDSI

[6] = molecular target: T6, QCR2 (yeast (endogenous in mitochondria of strain YPH499)) (UniProt P07257)
T6 sequence: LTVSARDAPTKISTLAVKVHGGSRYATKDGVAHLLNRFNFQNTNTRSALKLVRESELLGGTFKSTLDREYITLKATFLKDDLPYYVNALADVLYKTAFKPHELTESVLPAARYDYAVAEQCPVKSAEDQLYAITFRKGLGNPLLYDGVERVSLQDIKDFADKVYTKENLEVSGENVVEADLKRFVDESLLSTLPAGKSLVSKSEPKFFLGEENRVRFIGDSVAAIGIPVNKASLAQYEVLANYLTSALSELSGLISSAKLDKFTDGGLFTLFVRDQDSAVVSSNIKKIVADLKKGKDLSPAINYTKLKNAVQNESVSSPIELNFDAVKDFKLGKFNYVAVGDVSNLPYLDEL

[7] = molecular target: PET9 (yeast (endogenous in mitochondria of strain YPH499)) (UniProt P18239)
[8] = molecular target: T7, ILV6 (yeast (endogenous in mitochondria of strain YPH499)) (UniProt P25605)
T7 sequence: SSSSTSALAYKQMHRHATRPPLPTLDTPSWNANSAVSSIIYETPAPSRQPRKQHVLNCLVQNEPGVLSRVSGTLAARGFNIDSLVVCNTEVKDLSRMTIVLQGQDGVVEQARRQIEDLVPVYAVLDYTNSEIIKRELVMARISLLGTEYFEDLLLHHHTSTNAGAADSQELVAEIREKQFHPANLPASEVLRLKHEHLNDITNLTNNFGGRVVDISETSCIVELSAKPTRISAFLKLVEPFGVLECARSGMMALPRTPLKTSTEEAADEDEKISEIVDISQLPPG

B1: ATP7 (protein, UniProt P30902 1-174)
chain: T4 sequence
binding [1]: binds

B3: ATP4 (protein, UniProt P05626 36-244)
chain: MSSTPEKQTDPKAKANSIINAIPGNNILTKTGVLGTSAAAVIYAISNELYVINDESILLLTFLGFTGLVAKYLAPAYKDFADARMKKVSDVLNASRNKHVEAVKDRIDSVSQLQNVAETTKVLFDVSKETVELESEAFELKQKVELAHEAKAVLDSWVRYEASLRQLEQRQLAKSVISRVQSELGNPKFQEKVLQQSISEIEQLLSKLK
binding [3]: binds
binding [4]: binds
binding [5]: binds

B5: AAC1 (protein, UniProt P04710 1-309)
chain: MSHTETQTQQSHFGVDFLMGGVSAAIAKTGAAPIERVKLLMQNQEEMLKQGSLDTRYKGILDCFKRTATHEGIVSFWRGNTANVLRYFPTQALNFAFKDKIKSLLSYDRERDGYAKWFAGNLFSGGAAGGLSLLFVYSLDYARTRLAADARGSKSTSQRQFNGLLDVYKKTLKTDGLLGLYRGFVPSVLGIIVYRGLYFGLYDSFKPVLLTGALEGSFVASFLLGWVITMGASTASYPLDTVRRRMMMTSGQTIKYDGALDCLRKIVQKEGAYSLFKGCGANIFRGVAAAGVISLYDQLQLIMFGKKFK
binding [7]: binds

Second part, the binder after the results:

binding [2]: binds
B2: YMR31 (protein, UniProt P19955 9-123)
chain: AKSAYEPMIKFVGTRHPLVKHATEVVVHPCATNGMLPGSKECIPVSKFMENYKPFRVVPIKHSANAGLSSSKTSVFVNRPLQKDELASIFELPARFRYKPINEHELESINSGGAW

binding [6]: binds
B4: COR1 (protein, UniProt P07256 27-457)
chain: AEVTQLSNGIVVATEHNPSAHTASVGVVFGSGAANENPYNNGVSNLWKNIFLSKENSAVAAKEGLALSSNISRDFQSYIVSSLPGSTDKSLDFLNQSFIQQKANLLSSSNFEATKKSVLKQVQDFEENDHPNRVLEHLHSTAFQNTPLSLPTRGTLESLENLVVADLESFANNHFLNSNAVVVGTGNIKHEDLVNSIESKNLSLQTGTKPVLKKKAAFLGSEVRLRDDTLPKAWISLAVEGEPVNSPNYFVAKLAAQIFGSYNAFEPASRLQGIKLLDNIQEYQLCDNFNHFSLSYKDSGLWGFSTATRNVTMIDDLIHFTLKQWNRLTISVTDTEVERAKSLLKLQLGQLYESGNPVNDANLLGAEVLIKGSKLSLGEAFKKIDAITVKDVKAWAGKRLWDQDIAIAGTGQIEGLLDYMRIRSDMSMMRW

binding [8]: binds
B6: ILV2 (protein, UniProt P07342 91-687)
chain: GLTGGQIFNEMMSRQNVDTVFGYPGGAILPVYDAIHNSDKFNFVLPKHEQGAGHMAEGYARASGKPGVVLVTSGPGATNVVTPMADAFADGIPMVVFTGQVPTSAIGTDAFQEADVVGISRSCTKWNVMVKSVEELPLRINEAFEIATSGRPGPVLVDLPKDVTAAILRNPIPTKTTLPSNALNQLTSRAQDEFVMQSINKAADLINLAKKPVLYVGAGILNHADGPRLLKELSDRAQIPVTTTLQGLGSFDQEDPKSLDMLGMHGCATANLAVQNADLIIAVGARFDDRVTGNISKFAPEARRAAAEGRGGIIHFEVSPKNINKVVQTQIAVEGDATTNLGKMMSKIFPVKERSEWFAQINKWKKEYPYAYMEETPGSKIKPQTVIKKLSKVANDTGRHVIVTTGVGQHQMWAAQHWTWRNPHTFITSGGLGTMGYGLPAAIGAQVAKPESLVIDIDGDASFNMTLTELSSAVQAGTPVKILILNNEEQGMVTQWQSLFYEHRYSHTHQLNPDFIKLAEAMGLKGLRVKKQEELDAKLKEFVSTKGPVLLEVEVDKKVPVLPMVAGGSGLDEFINFDPEVERQQTELRHKRTGGKH

Reference: article PMC7124466
